# Reference: the supplement of paper PMC7666118
# Chains of the proteins cited; added tags and fusions are not shown. Lines headed by an entry give the natural chain unless they say otherwise; changes in a name come on top.
# UniProt Q13043: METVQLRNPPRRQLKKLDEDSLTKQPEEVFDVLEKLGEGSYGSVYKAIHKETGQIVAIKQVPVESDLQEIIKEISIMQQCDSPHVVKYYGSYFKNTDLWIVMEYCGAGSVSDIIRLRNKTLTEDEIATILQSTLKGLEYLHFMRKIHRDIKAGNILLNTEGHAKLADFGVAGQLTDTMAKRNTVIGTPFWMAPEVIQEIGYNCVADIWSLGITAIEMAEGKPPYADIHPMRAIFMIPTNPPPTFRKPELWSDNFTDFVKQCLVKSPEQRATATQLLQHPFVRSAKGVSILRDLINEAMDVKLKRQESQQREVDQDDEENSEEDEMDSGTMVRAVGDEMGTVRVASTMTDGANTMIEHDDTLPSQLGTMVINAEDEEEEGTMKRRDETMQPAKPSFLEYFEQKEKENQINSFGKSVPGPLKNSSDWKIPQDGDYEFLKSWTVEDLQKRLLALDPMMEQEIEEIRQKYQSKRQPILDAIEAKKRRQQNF
# UniProt Q9UQ90: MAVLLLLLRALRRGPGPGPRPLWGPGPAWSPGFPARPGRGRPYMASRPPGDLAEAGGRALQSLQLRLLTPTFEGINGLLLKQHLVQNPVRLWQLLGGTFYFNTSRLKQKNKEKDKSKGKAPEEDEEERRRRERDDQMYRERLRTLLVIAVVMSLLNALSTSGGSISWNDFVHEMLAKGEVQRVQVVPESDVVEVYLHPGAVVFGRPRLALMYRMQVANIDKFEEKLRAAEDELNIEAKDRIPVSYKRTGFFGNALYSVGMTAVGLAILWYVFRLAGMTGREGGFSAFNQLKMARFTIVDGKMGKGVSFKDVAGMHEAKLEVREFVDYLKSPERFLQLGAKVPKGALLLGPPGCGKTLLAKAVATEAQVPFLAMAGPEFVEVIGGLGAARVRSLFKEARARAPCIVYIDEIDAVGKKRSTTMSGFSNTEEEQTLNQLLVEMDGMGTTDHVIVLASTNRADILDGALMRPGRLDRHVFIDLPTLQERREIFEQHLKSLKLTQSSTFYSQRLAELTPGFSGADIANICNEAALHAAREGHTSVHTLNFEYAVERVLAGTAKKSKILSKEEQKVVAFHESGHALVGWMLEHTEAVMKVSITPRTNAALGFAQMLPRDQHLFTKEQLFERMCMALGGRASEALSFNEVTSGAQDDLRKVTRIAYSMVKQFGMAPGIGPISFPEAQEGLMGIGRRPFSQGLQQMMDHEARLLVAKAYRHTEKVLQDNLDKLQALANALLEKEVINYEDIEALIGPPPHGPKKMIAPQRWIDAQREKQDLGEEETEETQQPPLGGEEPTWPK
# UniProt Q14683: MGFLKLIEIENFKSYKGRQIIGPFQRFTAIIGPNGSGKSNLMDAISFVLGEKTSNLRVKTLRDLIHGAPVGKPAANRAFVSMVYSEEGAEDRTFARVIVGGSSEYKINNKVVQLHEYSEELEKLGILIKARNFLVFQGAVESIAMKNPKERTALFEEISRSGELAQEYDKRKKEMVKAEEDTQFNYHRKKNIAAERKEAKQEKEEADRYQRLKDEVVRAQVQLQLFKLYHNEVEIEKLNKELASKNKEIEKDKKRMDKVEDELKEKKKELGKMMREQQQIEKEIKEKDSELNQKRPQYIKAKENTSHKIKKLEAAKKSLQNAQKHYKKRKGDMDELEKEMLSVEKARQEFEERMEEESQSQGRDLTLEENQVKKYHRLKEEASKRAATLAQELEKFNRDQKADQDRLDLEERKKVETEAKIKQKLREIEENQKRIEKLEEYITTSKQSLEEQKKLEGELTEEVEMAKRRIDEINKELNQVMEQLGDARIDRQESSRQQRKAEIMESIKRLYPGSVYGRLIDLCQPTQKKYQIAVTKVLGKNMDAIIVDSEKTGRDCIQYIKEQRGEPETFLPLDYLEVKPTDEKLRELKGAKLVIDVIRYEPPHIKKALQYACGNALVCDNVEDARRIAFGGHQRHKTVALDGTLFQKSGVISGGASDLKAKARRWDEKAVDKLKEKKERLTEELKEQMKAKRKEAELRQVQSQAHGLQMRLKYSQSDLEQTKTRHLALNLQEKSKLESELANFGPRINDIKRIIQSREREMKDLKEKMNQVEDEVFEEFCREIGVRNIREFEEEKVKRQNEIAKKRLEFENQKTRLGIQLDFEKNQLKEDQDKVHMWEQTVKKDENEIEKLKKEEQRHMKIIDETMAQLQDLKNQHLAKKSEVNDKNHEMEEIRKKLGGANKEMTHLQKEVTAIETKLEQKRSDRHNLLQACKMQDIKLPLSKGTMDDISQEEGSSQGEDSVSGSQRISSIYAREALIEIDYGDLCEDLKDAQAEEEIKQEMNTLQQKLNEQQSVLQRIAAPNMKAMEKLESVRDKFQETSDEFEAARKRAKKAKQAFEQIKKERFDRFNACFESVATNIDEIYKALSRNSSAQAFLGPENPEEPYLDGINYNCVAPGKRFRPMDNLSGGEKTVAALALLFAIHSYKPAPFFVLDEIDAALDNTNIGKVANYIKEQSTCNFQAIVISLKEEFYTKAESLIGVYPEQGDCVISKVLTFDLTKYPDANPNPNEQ
# UniProt Q96T83: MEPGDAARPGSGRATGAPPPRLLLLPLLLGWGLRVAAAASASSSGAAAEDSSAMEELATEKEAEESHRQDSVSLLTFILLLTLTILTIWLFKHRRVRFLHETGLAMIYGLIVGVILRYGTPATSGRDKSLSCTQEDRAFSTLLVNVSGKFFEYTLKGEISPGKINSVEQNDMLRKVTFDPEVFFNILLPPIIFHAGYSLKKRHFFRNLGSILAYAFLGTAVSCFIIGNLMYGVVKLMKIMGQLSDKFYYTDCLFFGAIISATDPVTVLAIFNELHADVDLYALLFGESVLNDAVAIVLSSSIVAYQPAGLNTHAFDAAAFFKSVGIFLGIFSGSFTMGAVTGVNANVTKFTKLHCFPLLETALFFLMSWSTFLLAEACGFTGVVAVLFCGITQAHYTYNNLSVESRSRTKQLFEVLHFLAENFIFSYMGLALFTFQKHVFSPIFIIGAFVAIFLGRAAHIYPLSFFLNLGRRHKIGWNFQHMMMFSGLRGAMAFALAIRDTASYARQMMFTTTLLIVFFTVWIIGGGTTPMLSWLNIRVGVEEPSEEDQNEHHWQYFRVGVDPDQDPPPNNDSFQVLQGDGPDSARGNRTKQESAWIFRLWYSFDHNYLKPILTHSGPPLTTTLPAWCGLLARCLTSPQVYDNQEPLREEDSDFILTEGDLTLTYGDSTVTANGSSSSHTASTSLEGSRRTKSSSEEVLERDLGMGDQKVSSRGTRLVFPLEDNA
# UniProt Q96CW6: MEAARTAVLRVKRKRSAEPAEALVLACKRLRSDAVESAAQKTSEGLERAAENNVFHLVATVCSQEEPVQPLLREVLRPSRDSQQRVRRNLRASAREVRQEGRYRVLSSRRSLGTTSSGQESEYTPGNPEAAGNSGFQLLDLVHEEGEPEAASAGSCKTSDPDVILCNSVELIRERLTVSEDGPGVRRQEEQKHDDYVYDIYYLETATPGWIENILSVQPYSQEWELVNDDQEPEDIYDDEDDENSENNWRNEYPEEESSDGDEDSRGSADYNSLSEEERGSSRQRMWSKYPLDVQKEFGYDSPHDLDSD
# UniProt P61956, whole entry: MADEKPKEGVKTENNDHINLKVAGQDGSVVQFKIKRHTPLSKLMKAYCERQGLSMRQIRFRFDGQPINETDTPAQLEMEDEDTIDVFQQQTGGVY
# UniProt Q9H2G2: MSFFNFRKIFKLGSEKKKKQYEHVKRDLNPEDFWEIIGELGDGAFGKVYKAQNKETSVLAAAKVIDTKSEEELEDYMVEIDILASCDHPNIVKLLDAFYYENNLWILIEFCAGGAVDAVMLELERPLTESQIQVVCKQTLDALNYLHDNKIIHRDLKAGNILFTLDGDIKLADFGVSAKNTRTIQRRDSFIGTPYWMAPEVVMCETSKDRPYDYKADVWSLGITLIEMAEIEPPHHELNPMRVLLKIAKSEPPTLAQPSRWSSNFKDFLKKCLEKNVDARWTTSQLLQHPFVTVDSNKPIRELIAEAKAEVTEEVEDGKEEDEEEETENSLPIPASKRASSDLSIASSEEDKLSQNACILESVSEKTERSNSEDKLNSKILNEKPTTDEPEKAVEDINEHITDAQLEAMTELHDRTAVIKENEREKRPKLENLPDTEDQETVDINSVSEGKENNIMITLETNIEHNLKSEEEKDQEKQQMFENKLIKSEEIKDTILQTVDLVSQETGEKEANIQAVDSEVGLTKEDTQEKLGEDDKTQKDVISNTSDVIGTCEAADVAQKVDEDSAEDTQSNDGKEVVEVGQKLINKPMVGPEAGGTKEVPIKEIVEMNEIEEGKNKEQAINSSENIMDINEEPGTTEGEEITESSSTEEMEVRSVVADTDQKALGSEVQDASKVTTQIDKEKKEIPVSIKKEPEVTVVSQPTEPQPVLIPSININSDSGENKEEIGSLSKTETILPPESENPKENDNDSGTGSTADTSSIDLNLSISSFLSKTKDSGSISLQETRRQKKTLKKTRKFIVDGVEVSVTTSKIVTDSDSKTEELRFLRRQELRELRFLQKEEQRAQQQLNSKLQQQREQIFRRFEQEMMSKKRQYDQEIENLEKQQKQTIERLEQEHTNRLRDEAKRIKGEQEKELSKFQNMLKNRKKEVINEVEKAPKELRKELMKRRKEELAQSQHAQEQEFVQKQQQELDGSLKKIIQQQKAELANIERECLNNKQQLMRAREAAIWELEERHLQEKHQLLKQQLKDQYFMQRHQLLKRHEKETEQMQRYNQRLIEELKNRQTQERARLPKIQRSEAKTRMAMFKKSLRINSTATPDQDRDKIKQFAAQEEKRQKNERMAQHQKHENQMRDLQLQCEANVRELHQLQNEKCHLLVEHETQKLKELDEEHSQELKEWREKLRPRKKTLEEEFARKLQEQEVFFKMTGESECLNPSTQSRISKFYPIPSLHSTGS
# UniProt O43278: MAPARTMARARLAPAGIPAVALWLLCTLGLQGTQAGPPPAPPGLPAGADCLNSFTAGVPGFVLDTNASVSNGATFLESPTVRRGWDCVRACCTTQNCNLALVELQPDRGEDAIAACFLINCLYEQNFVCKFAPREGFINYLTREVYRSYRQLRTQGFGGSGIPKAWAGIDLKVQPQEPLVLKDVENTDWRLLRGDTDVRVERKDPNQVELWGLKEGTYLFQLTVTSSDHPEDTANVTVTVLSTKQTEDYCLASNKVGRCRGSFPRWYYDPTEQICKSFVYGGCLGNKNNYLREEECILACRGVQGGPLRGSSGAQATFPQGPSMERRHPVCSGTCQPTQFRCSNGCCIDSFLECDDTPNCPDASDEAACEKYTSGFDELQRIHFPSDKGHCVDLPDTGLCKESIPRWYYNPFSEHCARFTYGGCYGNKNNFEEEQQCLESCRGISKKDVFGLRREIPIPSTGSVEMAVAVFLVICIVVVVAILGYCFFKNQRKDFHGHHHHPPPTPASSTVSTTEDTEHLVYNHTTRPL
# UniProt Q13573: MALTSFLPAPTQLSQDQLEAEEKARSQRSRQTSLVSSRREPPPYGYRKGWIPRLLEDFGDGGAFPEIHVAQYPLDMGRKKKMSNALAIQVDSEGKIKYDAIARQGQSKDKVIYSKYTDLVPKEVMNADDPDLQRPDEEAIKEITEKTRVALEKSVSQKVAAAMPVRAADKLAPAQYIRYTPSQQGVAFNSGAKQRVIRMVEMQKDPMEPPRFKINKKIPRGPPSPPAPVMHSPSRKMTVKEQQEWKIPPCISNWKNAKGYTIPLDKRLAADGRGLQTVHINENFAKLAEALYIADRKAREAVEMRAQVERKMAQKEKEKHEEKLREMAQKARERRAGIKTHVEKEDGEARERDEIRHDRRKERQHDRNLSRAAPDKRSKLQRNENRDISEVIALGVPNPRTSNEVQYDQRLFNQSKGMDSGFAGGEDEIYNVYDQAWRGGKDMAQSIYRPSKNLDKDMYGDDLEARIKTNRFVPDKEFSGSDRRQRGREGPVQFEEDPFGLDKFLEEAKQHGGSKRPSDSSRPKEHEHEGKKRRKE
# UniProt O60506: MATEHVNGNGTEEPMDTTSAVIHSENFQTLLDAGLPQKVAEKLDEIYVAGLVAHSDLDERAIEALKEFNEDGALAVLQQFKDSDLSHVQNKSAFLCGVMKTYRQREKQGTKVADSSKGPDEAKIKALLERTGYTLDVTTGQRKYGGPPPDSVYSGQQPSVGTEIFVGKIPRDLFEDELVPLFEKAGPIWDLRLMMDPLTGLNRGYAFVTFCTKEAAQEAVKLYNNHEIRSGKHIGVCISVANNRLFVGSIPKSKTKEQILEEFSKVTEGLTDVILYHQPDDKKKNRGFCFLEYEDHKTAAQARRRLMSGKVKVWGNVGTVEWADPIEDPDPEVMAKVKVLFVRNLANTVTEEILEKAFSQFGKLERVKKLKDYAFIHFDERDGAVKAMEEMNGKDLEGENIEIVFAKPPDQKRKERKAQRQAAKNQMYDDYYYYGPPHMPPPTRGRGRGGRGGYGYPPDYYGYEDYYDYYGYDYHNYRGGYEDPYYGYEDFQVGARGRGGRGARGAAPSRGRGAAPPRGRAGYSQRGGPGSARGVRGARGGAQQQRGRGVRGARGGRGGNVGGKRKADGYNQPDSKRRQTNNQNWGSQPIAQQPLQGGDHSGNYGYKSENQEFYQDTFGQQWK
# This is one part of the list.
# Compound: COc1ccc(Cn2ccc3ccc(C(=O)NO)cc32)cc1
# Experiment: dose-dependent thermal stabilisation call (2D-TPP, DLPTP, 10% FDR) (binary (1 = stabilised)); higher = stabilised by the compound
# Details: system: HL-60 intact cells; concentration range 0.04-10 µM
row,Target,dose-dependent thermal stabilisation call
1,SPC25 (UniProt Q9HBM1),inactive: 0
2,SSR3 (UniProt Q9UNL2),inactive: 0
3,STK4 (UniProt Q13043),inactive: 0
4,SSR1 (UniProt P43307),inactive: 0
5,SOD2 (UniProt P04179),inactive: 0
6,SPG7 (UniProt Q9UQ90),inactive: 0
7,SPCS2 (UniProt Q15005),inactive: 0
8,STK35 (UniProt Q8TDR2),inactive: 0
9,SOS1 (UniProt Q07889),inactive: 0
10,SLC9A1 (UniProt P19634),inactive: 0
11,SMC1A (UniProt Q14683),inactive: 0
12,SLC9A7 (UniProt Q96T83),inactive: 0
13,SUZ12 (UniProt Q15022),inactive: 0
14,SNRPB (UniProt P14678),inactive: 0
15,SYAP1 (UniProt Q96A49),inactive: 0
16,SRP14 (UniProt P37108),inactive: 0
17,SYMPK (UniProt Q92797),inactive: 0
18,SUPT16H (UniProt Q9Y5B9),inactive: 0
19,SLC7A6OS (UniProt Q96CW6),inactive: 0

row,Target,dose-dependent thermal stabilisation call
1,SUMO2 (UniProt P61956),inactive: 0
2,STK33 (UniProt Q9BYT3),inactive: 0
3,SSRP1 (UniProt Q08945),inactive: 0
4,SLK (UniProt Q9H2G2),inactive: 0
5,SUPV3L1 (UniProt Q8IYB8),inactive: 0
6,SNX30 (UniProt Q5VWJ9),inactive: 0
7,SNX8 (UniProt Q9Y5X2),inactive: 0
8,SPNS3 (UniProt Q6ZMD2),inactive: 0
9,SPRYD3 (UniProt Q8NCJ5),inactive: 0
10,SPAG7 (UniProt O75391),inactive: 0
11,SPN (UniProt P16150),inactive: 0
12,STUB1 (UniProt Q9UNE7),inactive: 0
13,SPINT1 (UniProt O43278),inactive: 0
14,SPCS1 (UniProt Q9Y6A9),inactive: 0
15,SNW1 (UniProt Q13573),inactive: 0
16,SYVN1 (UniProt Q86TM6),inactive: 0
17,SYNCRIP (UniProt O60506),inactive: 0
18,SMG7 (UniProt Q92540),inactive: 0
19,SRPK1 (UniProt Q96SB4),inactive: 0

# 2 entries from above, with bars between the fields:
row | Target | dose-dependent thermal stabilisation call
9 | SPRYD3 (UniProt Q8NCJ5) | inactive: 0
10 | SPAG7 (UniProt O75391) | inactive: 0
